{"source": "patent US20250000881A1", "about": "“TREATMENT OF TREATMENT RESISTANT […] PSILOCYBIN” (COMPASS […], priority 2021, published 2025)", "key": {"adult subjects with TRD [1]": {"system": "adult subjects with TRD", "test": "Phase 2b randomised double-blind trial in TRD: MADRS total score, response, remission, sustained response", "format": "in vivo, human", "protocol": "Studies with more rigorous designs are needed to better the therapeutic potential of psilocybin in treatment-resistant depression (TRD). The aim of this study was to assess the effectiveness of 3 different doses of psilocybin (1 mg, 10 mg, and 25 mg) in TRD.\nThis was a Phase 2b, international multicentre, randomized, fixed dose, double-blind trial. The study population included adult men and women, 18 years of age and older, with TRD. […] Augmentation counts as a second treatment, provided it was approved for the adjunctive treatment of MDD in that country.\nThe treatment period was determined the optimal therapeutic dose; 233 subjects were randomised in an approximately 1:1:1 ratio to receive 1 mg psilocybin (79 subjects), 10 mg psilocybin (75 subjects), or 25 mg psilocybin (79 subjects). […]\nThe primary objective of this study was to evaluate the efficacy of psilocybin (25 mg or 10 mg) compared to 1 mg, administered under supportive conditions to adult subjects with TRD, in improving depressive symptoms, as assessed by the change in the Montgomery-Asberg Depression Rating Scale (MADRS) total score from baseline. […] The primary time point is week 3; this variable was analyzed for the change from Baseline to day 1, and weeks 1, 3, 6, 9, and 12 of the study. […]\nThe change from baseline in MADRS total score at week 3 will be evaluated with a mixed effects model for repeated measures analysis. […]"}, "adult subjects with TRD [2]": {"system": "adult subjects with TRD", "test": "Phase 2b trial in TRD: participants starting new treatment for depression", "format": "in vivo, human", "conditions": "25 mg arm", "protocol": "All subjects were asked to remain off their antidepressant medications for at least 3 weeks following the psilocybin session until the primary endpoint assessment, or longer. Rescue medications were allowed and described in the Rescue Medications section below. Subjects who restarted their antidepressant medications during the first 3 weeks after the psilocybin treatment administration were assessed for reasons of resuming their medications and followed until 12 weeks post-psilocybin administration."}, "adult subjects with TRD [3]": {"system": "adult subjects with TRD", "test": "Phase 2b trial in TRD: EQ-5D-3L and EuroQoL Visual Analogue Scale quality of life", "format": "in vivo, human", "protocol": "(§1) Other objectives were to evaluate the effects of psilocybin on quality of life and wellbeing, functioning and associated disability, cognitive function, and anxiety compared to 1 mg psilocybin on: • (a) Quality of life in subject EuroQoL (EQ)-5 dimension-3 level scale (EQ-5D-3L) score change from Baseline to week 3. This will also be assessed at week 12. This assessment was not mandatory. • (b) Quality of life in caregiver EQ-5D-3L score change from Baseline to week 3. This was assessed at week 12. • (c) Functioning and associated disability in the Sheehan Disability Scale (SDS) score change from Baseline to week 3. This was also assessed at week 12. • (d) Cognitive function as measured by the Digit Symbol Substitution Test (DSST) score change from baseline to week 3. This was assessed at day 1 and week 12. • (e) Level of anxiety as measured using the change in Generalised Anxiety Disorder 7 item Scale (GAD-7) total score change from baseline to week 3. This was assessed at week 12. • (f) Subject determined level of depression as measured using the change in Quick Inventory of Depressive Symptomatology Self-Rated (QIDS-SR-16) total score from Baseline to week 3. […] This was assessed at week 12. • (h) To evaluate the impact of different psilocybin doses on real life functional activity estimated from passive data streams collected on a mobile app on subjects' mobile phones. […]"}, "adult subjects with TRD [4]": {"system": "adult subjects with TRD", "test": "Phase 2b trial in TRD: Digit Symbol Substitution Test (DSST)", "format": "in vivo, human", "conditions": "25 mg, 10 mg, 1 mg groups", "protocol": "as §1"}, "[5]": {"system": "participants with TRD from Example 2", "test": "Long term follow-up study: MADRS responders, remitters, sustained responders to week 52", "format": "in vivo, human", "conditions": "any arm, baseline to 52 weeks", "protocol": "The following example is a long term follow up of study of a sustained responder population from Example 2. 58 participants from Example 2 were selected for a long term 52 week follow up study. Of the 58 patients, 22 received a 25 mg dose of psilocybin, 19 received a 10 mg dose of psilocybin, and 17 received a 1 mg dose of psilocybin. […] None of the patients in this study received treatment for depression before their week 12 MADRS visit in Example 2. Patients were analyzed for a change in MADRS total score from Baseline to 12, 16, 20, 24, 28, 40, and 52 weeks.\nThe secondary endpoint of this study was to determine the change in MADRS total score from Baseline to 12, 16, 20, 24, 28, 40, and 52 weeks post treatment. […] Note, “n*” changed to account for subjects that dropped out the long term study."}, "Hygroscopicity": {"test": "Hygroscopicity", "format": "physicochemical", "conditions": "forms Hydrate A at high humidity and when added to water; water of hydration lost rapidly on drying"}}, "note": "At least one compound was matched to its structure with a doubt left."}
{"smiles": "CN(C)CCc1c[nH]c2cccc(OP(=O)(O)O)c12", "note": "[COMP360, psilocybin]", "values": [{"measurement": "MADRS, 10 mg vs 1 mg dose, statistical significance", "setting": "adult subjects with TRD [1]; week 3", "result": "did not show a statistically significant difference"}, {"measurement": "Patients showing response and remission, 25 mg group compared with 1 mg group", "setting": "adult subjects with TRD [1]; week 3 and week 12", "result": "At least twice the number of patients"}, {"measurement": "Timepoint of starting new treatments, 25 mg compared with 10 mg and 1 mg arms", "setting": "adult subjects with TRD [2]", "result": "typically started new treatments at a later timepoint"}, {"measurement": "Changes in quality of life in sustained responders", "setting": "adult subjects with TRD [3]; 25 mg group, mean scores returning to normal levels, maintained to 12 weeks", "result": "clinically meaningful"}, {"measurement": "EQ-5D-3L total score and EuroQoL-Visual Analogue Scale, comparison between groups", "setting": "adult subjects with TRD [3]; 25 mg, 10 mg, 1 mg groups", "result": "no differences were seen between the groups"}, {"measurement": "DSST, comparison between groups", "setting": "adult subjects with TRD [4]", "result": "no differences were seen between the groups"}, {"measurement": "Sustained responders starting new treatments for depression", "setting": "[5]", "result": "none of the sustained responders in any arms started new treatments for depression"}, {"measurement": "Hygroscopicity", "setting": "Hygroscopicity", "result": "Psilocybin forms Hydrate A at high"}]}
